The values below come from patent US4950792A, “Substituted p,p'-methylene-bis-anilines” (Lonza Ltd., priority 1985, dated 1990).

Series [1] is described as follows: hardening: pot life and nail time of polyurethane mass.
Series [2] is described as follows: structural tear strength of the elastomer, DIN 53515. As to conditions: for STS (structural tear strength) at 20°: 20° C.; for STS (structural tear strength) at 60°: 60° C.
The mark [3] stands for this setting: prepolymer PTMG-1000 TDI, amine 100 mol % in component B.
Setting [4] is: prepolymer PCL-2000 TDI, amine 66 mol % in component B.
Where [5] appears, read: prepolymer PCL-2000 TDI, amine 100 mol % in component B.
[6] abbreviates: prepolymer PCL-2000 MDI, amine 66 mol % in component B.
Setting [7] is: prepolymer PCL-2000 MDI, amine 100 mol % in component B.
The mark [8] stands for this setting: prepolymer PTMG-1000 TDI, amine 80 mol % in component B.
The mark [9] stands for this setting: prepolymer PCL-2000 MDI, amine 66 mol % in component B, curing at 70° C.

As to `Nc1ccc(Cc2ccc(N)c(Cl)c2)cc1Cl` [Amine I, 4,4'-methylene-bis(2-chloroaniline), reference compound], the “NT (nail time)” value in series [1] (setting [3]) is given as 44 '. Further, in series [2] (setting [3]), the “STS (structural tear strength) at 20°” value amounted to 72 N/mm and the “STS (structural tear strength) at 60°” value is 39 N/mm.

On to `Nc1ccc(Cc2ccc(N)cc2Cl)c(Cl)c1` [Amine II, 4,4'-Methylene-bis(3-chloroaniline), reference compound], for which the “NT (nail time)” value in series [1] (setting [4]) is 30 '. For the same molecule, in series [1] (setting [5]), the “NT (nail time)” value is listed as 5 ' and the “PL (pot life)” value is given as 33 ". For the same molecule, in series [2] (setting [4]), the “STS (structural tear strength) at 20°” value is given as 35 N/mm and the “STS (structural tear strength) at 60°” value came out at 5 N/mm. Further, in series [2] (setting [5]), the “STS (structural tear strength) at 20°” value amounted to 33 N/mm and the “STS (structural tear strength) at 60°” value was determined as 8 N/mm.

For `Cc1c(N)ccc(Cc2ccc(N)c(C)c2Cl)c1Cl` [Amine III, 4,4'-methylene-bis (3-chloro-2-methylaniline), reference compound], in series [1] (setting [6]), the “NT (nail time)” value was 9 ' and the “PL (pot life)” value is reported as 18 ". In series [2] (setting [6]), the “STS (structural tear strength) at 20°” value is 31 N/mm and the “STS (structural tear strength) at 60°” value came out at 16 N/mm.

With `CCc1c(N)c(Cl)cc(Cc2cc(Cl)c(N)c(CC)c2Cl)c1Cl` [Amine IV, 4,4'-Methylene-bis(2,5-dichloro-6-ethylaniline)], the “NT (nail time)” value in series [1] (setting [4]) is given as 25 '. In series [2] (setting [4]), the “STS (structural tear strength) at 20°” value is on record as 75 N/mm and the “STS (structural tear strength) at 60°” value came out at 55 N/mm.

Turning to `CCC(C)c1cc(Cc2cc(C(C)CC)c(N)c(C(C)CC)c2Cl)c(Cl)c(C(C)CC)c1N` (stereo not shown) [Amine IX, 4,4'-Methylene-bis-(3-chloro-2,6-di-sec-butylaniline)], the “NT (nail time)” value in series [1] (setting [3]) is 18 '. In series [2] (setting [3]), the “STS (structural tear strength) at 20°” value came out at 67 N/mm and the “STS (structural tear strength) at 60°” value came to 32 N/mm.

Take `CCc1cc(Cc2cc(CC)c(N)c(CC)c2Cl)c(Cl)c(CC)c1N` [Amine V, 4,4'-Methylene-bis-(3-chloro-2,6-diethylaniline)]: the “NT (nail time)” value is 9 ' in series [1] (setting [6]); 5 ' in series [1] (setting [7]); 53 ' in series [1] (setting [4]); 28 ' in series [1] (setting [8]); 23 ' in series [1] (setting [3]). The “PL (pot life)” value in series [1] (setting [6]) is on record as 19 "; in series [1] (setting [7]), 20 "; in series [1] (setting [8]) it was 3 '. For the same molecule, the “STS (structural tear strength) at 20°” value in series [2] (setting [6]) is 64 N/mm; in series [2] (setting [7]), 74 N/mm; in series [2] (setting [4]), 58 N/mm; in series [2] (setting [8]) it was 87 N/mm; in series [2] (setting [3]) it was 84 N/mm. Moreover, the “STS (structural tear strength) at 60°” value in series [2] (setting [6]) is given as 37 N/mm; in series [2] (setting [7]), 61 N/mm; in series [2] (setting [4]), 38 N/mm; in series [2] (setting [8]), 51 N/mm; in series [2] (setting [3]) it was 79 N/mm.

Regarding `CCc1cc(Cc2cc(CC)c(N)c(C)c2Cl)c(Cl)c(C)c1N` [Amine VI, 4,4'-Methylene-bis-(3-chloro-2-methyl-6-ethylaniline)], the “NT (nail time)” value in series [1] (setting [4]) is recorded as 40 '. Moreover, in series [2] (setting [4]), the “STS (structural tear strength) at 20°” value worked out at 62 N/mm and the “STS (structural tear strength) at 60°” value was found to be 53 N/mm.

Regarding `Cc1cc(Cc2cc(C)c(N)c(C(C)C)c2Cl)c(Cl)c(C(C)C)c1N` [Amine VII, 4,4'-Methylene-bis-(5-chloro-2-methyl-6-isopropylaniline)], in series [1] (setting [9]), the “NT (nail time)” value is given as 7 ' and the “PL (pot life)” value was 22 ". For the same molecule, in series [2] (setting [9]), the “STS (structural tear strength) at 20°” value is reported as 38 N/mm and the “STS (structural tear strength) at 60°” value is reported as 22 N/mm.

`Cc1c(N)c(C(C)C)cc(Cc2cc(C(C)C)c(N)c(C)c2Cl)c1Cl` [Amine VIII, 4,4'-Methylene-bis(3-chloro-2-methyl-6-isopropylaniline)]: the “NT (nail time)” value in series [1] (setting [4]) is reported as 25 '. In series [2] (setting [4]), the “STS (structural tear strength) at 20°” value is 61 N/mm and the “STS (structural tear strength) at 60°” value worked out at 31 N/mm.

`CCC(C)c1c(N)c(C)cc(Cc2cc(C)c(N)c(C(C)CC)c2Cl)c1Cl` (stereo not shown) [Amine X, 4,4'-Methylene-bis(5-chloro-2-methyl-6-sec-butylaniline)]: the “NT (nail time)” value in series [1] (setting [3]) is 16 '. Also, in series [2] (setting [3]), the “STS (structural tear strength) at 20°” value is recorded as 52 N/mm and the “STS (structural tear strength) at 60°” value turned out to be 32 N/mm.

For `Cc1cc(Cc2cc(C)c(N)cc2Cl)c(Cl)cc1N` [Amine XI, 4,4'-Methylene-bis(5-chloro-2-methylaniline), reference compound], the “NT (nail time)” value in series [1] (setting [4]) is listed as 35 '. Also, in series [1] (setting [5]), the “NT (nail time)” value was 29 ' and the “PL (pot life)” value is on record as 30 ". Besides, in series [2] (setting [4]), the “STS (structural tear strength) at 20°” value stood at 57 N/mm and the “STS (structural tear strength) at 60°” value came to 29 N/mm. Besides, in series [2] (setting [5]), the “STS (structural tear strength) at 20°” value is on record as 68 N/mm and the “STS (structural tear strength) at 60°” value is recorded as 37 N/mm.

With `CCC(C)OC(=O)c1cc(N)c(Cl)c(N)c1` (stereo not shown) [Amine XII, 3,5-diamino-4-chloro-benzoic acid sec-butyl ester, reference compound], the “NT (nail time)” value in series [1] (setting [3]) is reported as 120 '. Further, in series [2] (setting [3]), the “STS (structural tear strength) at 20°” value is 93 N/mm and the “STS (structural tear strength) at 60°” value was 52 N/mm.
